Experimental data: publication PMC12151379
These are yes or no findings as the source states them, for the method shown. Binding seen in cells or lysates may run through a third protein. Some entries that bind do so weakly or less than the wild type. Sequences can lack the tags named with a protein.

By UniProt entry, the sequences of proteins in these tests, tags left out. Where a name states a change or a piece, a line headed by the entry shows the natural chain unless it says otherwise. Chains listed by the source or under a name are the forms on record and can include a tag or linker.
UniProt O75334: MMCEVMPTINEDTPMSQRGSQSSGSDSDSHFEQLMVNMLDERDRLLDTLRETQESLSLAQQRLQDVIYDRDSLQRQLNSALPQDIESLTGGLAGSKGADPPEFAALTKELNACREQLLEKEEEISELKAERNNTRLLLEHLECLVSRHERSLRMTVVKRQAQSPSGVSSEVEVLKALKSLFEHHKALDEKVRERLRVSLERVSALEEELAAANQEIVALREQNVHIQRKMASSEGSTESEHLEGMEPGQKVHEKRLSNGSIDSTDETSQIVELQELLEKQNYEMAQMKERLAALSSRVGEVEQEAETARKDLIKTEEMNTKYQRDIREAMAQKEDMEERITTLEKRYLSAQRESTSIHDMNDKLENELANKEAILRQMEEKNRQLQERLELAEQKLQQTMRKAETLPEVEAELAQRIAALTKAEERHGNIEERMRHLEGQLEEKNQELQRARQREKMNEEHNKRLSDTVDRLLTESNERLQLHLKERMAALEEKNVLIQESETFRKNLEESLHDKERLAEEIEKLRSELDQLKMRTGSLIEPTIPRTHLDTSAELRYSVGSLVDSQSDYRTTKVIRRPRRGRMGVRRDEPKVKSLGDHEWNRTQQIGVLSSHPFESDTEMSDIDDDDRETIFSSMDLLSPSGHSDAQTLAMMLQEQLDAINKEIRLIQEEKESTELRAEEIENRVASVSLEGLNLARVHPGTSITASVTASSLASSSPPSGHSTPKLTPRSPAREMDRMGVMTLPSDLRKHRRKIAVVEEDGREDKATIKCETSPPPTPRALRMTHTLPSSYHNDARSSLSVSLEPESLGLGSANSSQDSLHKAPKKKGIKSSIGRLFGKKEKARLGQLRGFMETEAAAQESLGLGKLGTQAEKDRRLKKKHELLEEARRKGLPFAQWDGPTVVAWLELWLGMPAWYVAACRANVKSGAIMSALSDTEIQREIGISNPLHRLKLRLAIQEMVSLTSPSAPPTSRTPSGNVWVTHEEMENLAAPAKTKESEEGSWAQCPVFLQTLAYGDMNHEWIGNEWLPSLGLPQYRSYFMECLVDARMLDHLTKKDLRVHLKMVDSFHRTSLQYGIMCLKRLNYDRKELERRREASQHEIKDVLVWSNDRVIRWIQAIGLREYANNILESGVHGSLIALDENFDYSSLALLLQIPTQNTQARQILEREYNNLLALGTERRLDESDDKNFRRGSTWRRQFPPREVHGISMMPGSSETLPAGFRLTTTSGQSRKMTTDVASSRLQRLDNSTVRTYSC
GFP-tagged liprin-α2 ΔCC2N (O75334, form named): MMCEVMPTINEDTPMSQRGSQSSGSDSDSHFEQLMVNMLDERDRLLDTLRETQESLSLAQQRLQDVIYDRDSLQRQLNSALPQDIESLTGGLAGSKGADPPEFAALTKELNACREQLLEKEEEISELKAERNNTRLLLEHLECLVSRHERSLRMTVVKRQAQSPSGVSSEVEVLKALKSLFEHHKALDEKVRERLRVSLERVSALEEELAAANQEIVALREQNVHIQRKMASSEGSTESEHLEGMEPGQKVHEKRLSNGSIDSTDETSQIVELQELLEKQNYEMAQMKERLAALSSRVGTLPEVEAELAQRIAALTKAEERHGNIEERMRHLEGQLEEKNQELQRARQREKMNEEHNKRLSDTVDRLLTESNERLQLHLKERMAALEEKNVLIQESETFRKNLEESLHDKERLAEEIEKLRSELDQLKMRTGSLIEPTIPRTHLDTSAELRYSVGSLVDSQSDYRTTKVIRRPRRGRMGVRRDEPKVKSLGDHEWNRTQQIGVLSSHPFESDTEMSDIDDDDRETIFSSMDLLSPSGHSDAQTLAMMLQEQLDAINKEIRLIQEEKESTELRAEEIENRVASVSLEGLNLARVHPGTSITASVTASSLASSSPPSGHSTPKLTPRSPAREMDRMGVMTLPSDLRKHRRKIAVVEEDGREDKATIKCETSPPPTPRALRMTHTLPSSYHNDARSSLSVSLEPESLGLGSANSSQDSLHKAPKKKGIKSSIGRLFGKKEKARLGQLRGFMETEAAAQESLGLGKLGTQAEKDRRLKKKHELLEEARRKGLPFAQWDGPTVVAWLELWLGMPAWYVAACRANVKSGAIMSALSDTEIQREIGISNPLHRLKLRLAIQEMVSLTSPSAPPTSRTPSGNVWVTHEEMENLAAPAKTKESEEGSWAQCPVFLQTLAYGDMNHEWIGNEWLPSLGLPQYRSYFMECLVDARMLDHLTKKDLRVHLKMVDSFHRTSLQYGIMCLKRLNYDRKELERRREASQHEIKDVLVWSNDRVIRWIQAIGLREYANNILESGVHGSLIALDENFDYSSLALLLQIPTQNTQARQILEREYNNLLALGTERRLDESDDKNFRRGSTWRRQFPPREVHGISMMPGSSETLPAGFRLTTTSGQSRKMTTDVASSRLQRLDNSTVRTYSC

Key:
Test in all cases: co-IP; HEK293T co-transfected; lysate on anti-GFP agarose beads, 60 min, 4 °C; blots with anti-GFP and anti-FLAG
[1] = target: GFP-tagged liprin-α2 R346E (human) (UniProt O75334)
[2] = target: GFP-tagged liprin-α2 ΔCC2N (human) (UniProt O75334)
[3] = target: GFP-tagged liprin-α2 E344R (human) (UniProt O75334)
[4] = target: GFP-tagged liprin-α2 (wild type) (human) (UniProt O75334)

Measured: binding

B1: Flag-tagged ELKS1 (protein, UniProt Q811U3 1-948)
chain: MYGSARSVGKVEPSSQSPGRSPRLPRSPRLGHRRTNSTGGSSGNSVGGGSGKTLSMENIQSLNAAYATSGPMYLSDHENVGAETPKSTMTLGRSGGRLPYGVRMTAMGSSPNIASSGVASDTIAFGEHHLPPVSMASTVPHSLRQARDNTIMDLQTQLKEVLRENDLLRKDVEVKESKLSSSMNSIKTFWSPELKKERALRKDEASKITIWKEQYRVVQEENQHMQMTIQALQDELRIQRDLNQLFQQDSSSRTGEPCVAELTEENFQRLHAEHERQAKELFLLRKTLEEMELRIETQKQTLNARDESIKKLLEMLQSKGLSAKATEEDHERTRRLAEAEMHVHHLESLLEQKEKENNMLREEMHRRFENAPDSAKTKALQTVIEMKDSKISSMERGLRDLEEEIQMLKSNGALSTEEREEEMKQMEVYRSHSKFMKNKIGQVKQELSRKDTELLALQTKLETLTNQFSDSKQHIEVLKESLTAKEQRAAILQTEVDALRLRLEEKETMLNKKTKQIQDMAEEKGTQAGEIHDLKDMLDVKERKVNVLQKKIENLQEQLRDKEKQMSSLKERVKSLQADTTNTDTALTTLEEALADKERTIERLKEQRDRDEREKQEEIDTYKKDLKDLKEKVSLLQGDLSEKEASLLDLKEHASSLASSGLKKDSRLKTLEIALEQKKEECLKMESQLKKAHEATLEARASPEMSDRIQQLEREIARYKDESSKAQTEVDRLLEILKEVENEKNDKDKKIAELESLTSRQVKDQNKKVANLKHKEQVEKKKSAQMLEEARRREDSLSDSSQQLQVEELLMAMEKVKQELESMKAKLSSTQQSLAEKETHLTNLRAERRKHLEEVLEMKQEALLAAISEKDANIALLELSSSKKKTQEEVAALKREKDRLVQQLKQQTQNRMKLMADNYEDDHFRSSRSNQTNHKPSPDQDEEEGIWA
binds: all assays above
